Experimental data from PMC11219001.
Results are given in words; binding and its absence hold for the method and conditions named. In cells and extracts the contact can be indirect. A yes stands for co-enrichment or nearness to the bait. Other partners may have been found. For part of these data: No binding means not detected with the bait. Tags and fused reporters may be left off the sequences shown.

The chains behind the UniProt entries cited, without tags or fusion partners.
UniProt A0A125YUT6: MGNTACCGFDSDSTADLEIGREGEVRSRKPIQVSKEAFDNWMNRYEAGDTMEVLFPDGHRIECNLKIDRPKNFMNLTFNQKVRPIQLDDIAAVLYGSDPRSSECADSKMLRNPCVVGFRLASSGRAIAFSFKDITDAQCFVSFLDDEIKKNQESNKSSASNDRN

Columns and labels:
[1] = biological target: T1, IMC19-3×HA (Toxoplasma gondii (endogenous in PRU strain)); assay: affinity purification with mass spectrometry; IP of the endogenously 3×HA-tagged bait from T. gondii PRU lysate made by sonication (10mM Hepes-pH 7.9, 1.5mM MgCl2, 10mM KCl, 1mM DTT); SureBeads Protein G magnetic beads; 2 replicates; PRU WT as negative control; SAINTexpress, high confident hits FDR ≤ 0.01
T1 sequence: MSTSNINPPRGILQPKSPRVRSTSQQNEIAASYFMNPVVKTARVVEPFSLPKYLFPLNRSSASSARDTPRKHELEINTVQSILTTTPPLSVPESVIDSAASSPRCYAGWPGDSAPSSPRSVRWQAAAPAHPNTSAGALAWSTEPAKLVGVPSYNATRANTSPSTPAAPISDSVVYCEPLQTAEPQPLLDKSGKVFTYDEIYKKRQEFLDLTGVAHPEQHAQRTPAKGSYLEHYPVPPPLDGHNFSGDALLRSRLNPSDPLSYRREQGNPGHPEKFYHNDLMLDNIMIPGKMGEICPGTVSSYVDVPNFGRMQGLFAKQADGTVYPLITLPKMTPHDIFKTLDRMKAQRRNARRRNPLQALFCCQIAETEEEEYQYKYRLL

[2] = biological target: T2, TGME49_306650-3×HA (Toxoplasma gondii (endogenous in PRU strain)) (UniProt S8G6Z4); assay: affinity purification with mass spectrometry; IP of the endogenously 3×HA-tagged bait from T. gondii PRU lysate made in 1% NP-40, 150 mM NaCl, 50 mM Tris pH 8.0, 5 mM EDTA, 1 hour at 4°C; SureBeads Protein G magnetic beads; 2 replicates; PRU WT as negative control; SAINTexpress
T2 sequence: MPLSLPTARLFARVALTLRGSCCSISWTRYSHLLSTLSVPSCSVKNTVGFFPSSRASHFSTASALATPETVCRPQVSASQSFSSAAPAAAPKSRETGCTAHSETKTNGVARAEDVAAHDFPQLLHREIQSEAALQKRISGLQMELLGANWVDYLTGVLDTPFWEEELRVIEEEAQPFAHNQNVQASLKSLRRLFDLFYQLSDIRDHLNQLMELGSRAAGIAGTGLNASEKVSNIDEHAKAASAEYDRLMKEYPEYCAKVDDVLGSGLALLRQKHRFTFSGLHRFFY

| Substance | binding [1] | binding [2] |
| --- | --- | --- |
| ISP3 (from UniProt A0A125YUT6 1-164) | binds |  |
| SDHA |  | no binding |
| succinate dehydrogenase subunit B |  | no binding |
